{"source": "paper doi:10.1101/2020.02.20.958934", "target": "T1, DCF1-his-myc (UniProt Q9QY73)", "T1 sequence": "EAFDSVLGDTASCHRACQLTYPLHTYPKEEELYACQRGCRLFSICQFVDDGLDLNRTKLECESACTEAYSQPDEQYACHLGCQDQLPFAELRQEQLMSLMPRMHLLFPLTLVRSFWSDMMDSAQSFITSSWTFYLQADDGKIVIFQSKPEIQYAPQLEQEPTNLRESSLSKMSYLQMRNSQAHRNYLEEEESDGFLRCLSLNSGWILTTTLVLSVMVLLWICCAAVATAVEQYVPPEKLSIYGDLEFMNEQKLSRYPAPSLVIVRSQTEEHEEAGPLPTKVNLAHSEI", "assay": "co-IP", "note": "Results are given in words; binding and its absence hold for the method and conditions named. Binding seen in cells or lysates may run through a third protein. Some results given as binding are weak or reduced against the parent protein; the word gives no strength. Tags and fused reporters may be left off the sequences shown.", "data": [{"binder": "PEBP1-1d4 (protein, UniProt P70296 1-187) MAADISQWAGPLCLQEVDEPPQHALRVDYAGVTVDELGKVLTPTQVMNRPSSISWDGLDPGKLYTLVLTDPDAPSRKDPKFREWHHFLVVNMKGNDISSGTVLSDYVGSGPPSGTGLHRYVWLVYEQEQPLSCDEPILSNKSGDNRGKFKVETFRKKYNLGAPVAGTCYQAEWDDYVPKLYEQLSGK", "values": [{"measurement": "binding", "value": "binds"}]}]}
